The source of these data is patent JP2003262640A.

Substitutions are numbered along the chain they refer to. No constants are given. Whether binding was seen depends on the method and setting. Some binding calls cover weakened binding; strength is not graded here.

In the assay the target is T1, ラットAILIM (rat AILIM) (rat) (UniProt Q9R1T7).
T1 sequence (looked up): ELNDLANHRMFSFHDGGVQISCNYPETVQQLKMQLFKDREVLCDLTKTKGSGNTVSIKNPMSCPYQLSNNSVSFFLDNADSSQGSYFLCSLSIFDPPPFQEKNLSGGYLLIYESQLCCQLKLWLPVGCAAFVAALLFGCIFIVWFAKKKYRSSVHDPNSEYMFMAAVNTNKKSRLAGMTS
In words: cell ELISA on rat AILIM CHO cells.

B1: AII289 (JMab-138) (antibody, human IgG2, kappa, V domains shown)
VH: EVQLVESGGGLVQPGGSLRLSCAASGFTFSSYDMHWVRQATGKGLEWVSAIGTAGDTYYPGSVKGRFTISRENAKNSLYLQMNSLRAGDTAVYYCVRDNRKVTHEHYYYYGMDVWGQGTTVTVSS
VL: EIVLTQSPGTLSLSPGERATLSCRASQNIRSSYLAWYQQKPGQAPGLLIYGASSRATGIPDRFSGSGSGTDFTLTISRLEPEDFAVYYCQQFGSSPMCSFGQGTKLEIKR
Consider B1, for which the binding result is “binds”.

B2: AII394 (JMab-139) (antibody, human IgG2, kappa, V domains shown)
VH: B1 VH with N99K, K101T
VL: B1 VL with N28S, R30S, Y33S, Y50F
Consider B2, for which the binding result was “binds”.
